Source: US10563263B2, “Genetic polymorphisms associated with statin response and cardiovascular diseases, methods of detection and uses thereof” (CELERA CORPORATION, priority 2010, dated 2020)
The source gives many values for each of these; only a part stands here.

System: CHD (fatal CHD, definite non-fatal MI, or revascularization)
Experiment: CARE: SNP by pravastatin treatment interaction, logistic regression (synergy index), CHD endpoint
Type: in vivo, human
Description: CARE was a secondary prevention trial and WOSCOPS was a primary prevention trial.
The CHD endpoint was defined in the analyses herein of CARE as a composite endpoint of fatal CHD, definite non-fatal MI, or revascularization, and was defined in the analyses herein of WOSCOPS as a composite endpoint of death from CHD, nonfatal MI, or revascularization. In both the CARE and WOSCOPS analyses herein, the CVD endpoint was defined as a composite endpoint of CHD or stroke. […] Revascularization, which can include percutaneous transluminal coronary angioplasty (PTCA), stent placement, and coronary artery bypass graft (CABG), are medical interventions that indicate the presence of CHD.
Cohort and case-only study designs were used to identify SNPs associated with response to statin treatment.
For each SNP, a logistic regression model having treatment status as the dependent variable and SNP as the independent predictor variable was performed, with terms for age, sex and race included in the model as covariates. The anti-log of the regression coefficient corresponding to the SNP is an estimate of the synergy index (SI) (Davis et al., “Imputing gene-treatment interactions when the genotype distribution is unknown using case-only and putative placebo analyses-a new method for the Genetics of Hypertension Associated Treatment (GenHAT) study”, Statistics in Medicine 23: (2004), pages 2413-2427). The SI is a ratio of odds ratios: for example in the CARE and WOSCOPS studies, the SI represents the factor by which the odds-ratio of statin treatment, compared with placebo, among major homozygous individuals is multiplied by in order to obtain the odds-ratio of treatment vs. placebo among heterozygous individuals; and multiplied by a second time to obtain the odds-ratio of treatment vs. placebo in minor homozygous individuals. The case-only study design results in a valid estimate of the SI under the assumption that genotype and treatment are independent in the population. In a randomized clinical trial, genotype and treatment are independent by design. The p-value for the regression coefficient corresponding to the SNP results from a test of the null hypothesis that the regression coefficient is equal to zero (SI is equal to one) and thus small p-values indicate the SI is unlikely equal to one and that the effect of treatment likely differs by genotype.
A case-only study design was used to test whether the reduction of CHD events by statin therapy (for CARE and WOSCOPS studies) differed according to genotype (a treatment by SNP interaction) for each SNP evaluated in the study.

## CC[C@H](C)C(=O)O[C@H]1C[C@H](O)C=C2C=C[C@H](C)[C@H](CC[C@@H](O)C[C@@H](O)CC(=O)O)[C@H]21 [Pravastatin, pravastatin]
rs9813552, allele G, ADD model, Imputed, NMISS 673
  OR: 0.487
rs9813552, allele G, DOM model, Imputed, NMISS 673
  OR: 0.472
rs9815037, allele T, ADD model, Imputed, NMISS 682
  OR: 0.482
rs9815037, allele T, DOM model, Imputed, NMISS 682
  OR: 0.467
rs9825349, allele A, ADD model, Imputed, NMISS 682
  OR: 0.482
rs9825349, allele A, DOM model, Imputed, NMISS 682
  OR: 0.467
rs9834217, allele T, ADD model, Imputed, NMISS 681
  OR: 0.483
rs9834217, allele T, DOM model, Imputed, NMISS 681
  OR: 0.468
rs9840460, allele T, ADD model, Imputed, NMISS 682
  OR: 0.482
rs9840460, allele T, DOM model, Imputed, NMISS 682
  OR: 0.467
rs9840756, allele A, ADD model, Imputed, NMISS 682
  OR: 0.482
rs9840756, allele A, DOM model, Imputed, NMISS 682
  OR: 0.467
rs9844801, allele C, DOM model, Imputed, NMISS 682
  OR: 1.705
rs9859901 allele A vs C (ref), Source cohort
  CARE OR: 0.59
rs9869187, allele C, ADD model, Imputed, NMISS 681
  OR: 0.488
rs9869187, allele C, DOM model, Imputed, NMISS 681
  OR: 0.497
rs9872327, allele T, DOM model, Imputed, NMISS 682
  OR: 1.705
rs9881685, allele A, ADD model, Imputed, NMISS 682
  OR: 0.481
rs9881685, allele A, DOM model, Imputed, NMISS 682
  OR: 0.466
rs9896077 allele G vs A (ref), Source cohort
  CARE OR: 0.63
rs9909499, allele C, DOM model, Imputed, NMISS 668
  OR: 1.42
rs9911847, allele G, DOM model, Imputed, NMISS 680
  OR: 0.668
rs9946886, allele G, REC model, Imputed, NMISS 232
  OR: 0.3
rs9958823, allele A, ADD model, Imputed, NMISS 679
  OR: 1.579
rs9965248, allele T, ADD model, Imputed, NMISS 671
  OR: 1.556
rs10021016 allele G, REC, Genotyped
  OR: 2.242
rs10051148, allele C, DOM, Imputed
  OR: 0.6544
rs10054055, allele T, DOM, Imputed
  OR: 0.6617
rs10067895, allele A, DOM, Imputed
  OR: 0.6716
rs10100725 allele C, DOM, Imputed
  OR: 0.5483
rs10106852, A1 (non-ref) G, A2 (ref) A
  CARE OR: 1.40
rs10128531 allele T, ADD, Imputed
  OR: 1.482
rs10155047 allele A vs G (ref), Source cohort
  CARE OR: 0.59
rs10181743 allele G, ADD, Imputed
  OR: 1.488
rs10199127 allele T, DOM, Imputed
  OR: 1.486
rs10270624 allele G, DOM, Imputed
  OR: 1.438
rs10305439 allele A vs C (ref), Source cohort
  CARE OR: 0.62
rs10429616 allele G vs A (ref), Source cohort
  CARE OR: 2.07
rs10430870 allele G, REC, Genotyped
  OR: 2.178
rs10444402 allele G vs A (ref), Source cohort
  CARE OR: 0.71
rs10460737, A1 (non-ref) A, A2 (ref) G
  CARE OR: 0.43
rs10469597 allele A, REC, Imputed
  OR: 2.519
rs10478919, allele G, DOM, Imputed
  OR: 0.6489
rs10494924 allele C vs A (ref), Source cohort
  CARE OR: 0.61
rs10506623, allele C, DOM, Imputed
  OR: 0.6128
rs10506623 allele C, ADD, Imputed
  OR: 0.7349
rs10506626, allele A, DOM, Imputed
  OR: 0.5922
rs10506626 allele A, ADD, Imputed
  OR: 0.7463
rs10509477 allele T, DOM, Imputed
  OR: 1.654
rs10517918 allele G, REC, Imported
  OR: 1.697
rs10517924 allele A, REC, Imputed
  OR: 1.803
rs10519362 allele G, DOM, Imputed
  OR: 1.5
rs10520072, allele T, DOM, Imputed
  OR: 0.6617
rs10737390, allele T, DOM, Imputed
  OR: 0.5772
rs10742851 allele T, REC, Imputed
  OR: 0.406
rs10743685 allele G, REC, Imputed
  OR: 1.943
rs10749293, allele G, DOM, Imputed
  OR: 1.637
rs10749294 allele A, DOM, Imputed
  OR: 1.575
rs10753760, allele T, ADD, Imputed
  OR: 1.391
rs10772362 allele T, ADD, Imputed
  OR: 0.6338
rs10784891, allele C, ADD, Imputed
  OR: 0.7164
rs10784891, allele C, DOM, Imputed
  OR: 0.631
rs10787923, allele G, DOM, Imputed
  OR: 1.647
rs10787924 allele T, DOM, Imputed
  OR: 1.585
rs10787949, allele A, DOM, Imputed
  OR: 1.634
rs10787951, allele G, DOM, Imputed
  OR: 1.634
rs10787983, allele C, DOM, Imputed
  OR: 1.614
rs10794733 allele C, ADD, Imputed
  OR: 0.765
rs10817479, A1 (non-ref) A, A2 (ref) G
  CARE OR: 1.83
rs10818280 allele C, DOM, Imputed
  OR: 0.7042
rs10860586 allele A, ADD, Imputed
  OR: 1.322
rs10870473 allele A, ADD, Imputed
  OR: 0.54
rs10870473 allele A, DOM, Imputed
  OR: 0.4734
rs10879240, allele C, ADD, Imputed
  OR: 0.7324
